Results published in PubChem BioAssay AID2685 (National Center for Advancing Translational Sciences (NCATS), 2010).
Out of some 320,000 compounds screened, about 2,100 (0.66%) were called active. The inconclusive results got no clear call from the source; some entries with a clear call stand among them for comparison. The call rests on the fitted dose curve; in most records, active means well fitted inhibition curve with a large enough effect in the signal ratio, with a control signal flat (not every such curve was filed as active); inconclusive means small, poorly fitted or top-dose-only effect, or effect the other way, or a change in a side signal; inactive means flat fitted curve, though single readings scatter; the % refers to the signal ratio. A potency beside an inconclusive call is a rough fit, not a confirmed value.

Assay: qHTS Assay for Lipid Storage Modulators in Drosophila S3 Cells
Details: BODIPY lipid droplet fluorescence, 18-24 h, cells fed with added oleic acid; lipid storage change, negative = inhibition: at 46.1 µM (top of the series) unless noted
Outline: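 Drosophila S3 cells got compounds at several concentrations plus oleic acid (400 uM solution). Laser-scanning cytometry with 488 nm excitation read lipid droplets at 500-530 nm and cells at 575-640 nm. Percent activity was relative to 20 uM Triacsin C.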
On the % scale 0 is the no-effect control and ±100 the full control effect; potency means the concentration at half of the fitted maximal effect.

Row | Structure (SMILES) | lipid storage change, negative = inhibition | Potency | outcome
1 | CN(C)c1ccc(P(=O)(COc2ccc([N+](=O)[O-])cc2)c2ccc(N(C)C)cc2)cc1 | inconclusive: 0.587% |  | 
2 | N#Cc1ccccc1Cn1c(=O)n(Cc2ccc(C(=O)NCc3ccco3)cc2)c(=O)c2ccccc21 |  | inconclusive: 29.1 µM [falling, single point] | 
3 | CCN(CC)C(=O)c1[nH]cnc1C(=O)NCC(=O)OCc1ccccc1 | inconclusive: -6.36% |  | 
4 | Cc1cc(NC(=O)Cn2c(=O)oc3ccccc32)no1 | inconclusive: 13.5% |  | 
5 | COc1ccccc1NC(=O)Cn1c(C)cc(=O)c2cccc(OC)c21 |  | inconclusive: 16.4 µM [falling, single point] | 
6 | COc1ccc(/C(C)=N/NC(=S)NCc2ccco2)cc1 | inconclusive: 37.4% |  | 
7 | CC1Cc2cc(/C=C3/SC(N4CCC(C(N)=O)CC4)=NC3=O)ccc2O1 (stereo unspecified) | inconclusive: -22.1% |  | 
8 | CCOC(=O)c1cnn(-c2nc(OCC)cc(OCC)n2)c1C | inconclusive: 30.4% |  | 
9 | CCOc1ccccc1C(=O)N1CCC(n2nnc3cc(C(F)(F)F)ccc32)CC1 |  |  | inactive [at 46.1 µM]
10 | Cn1nc(C(F)(F)F)c2cc(C(=O)Nc3ccc(C(F)(F)F)cc3)sc21 |  | inconclusive: 29.1 µM [falling, single point] | 
11 | Clc1cccc(COn2c(-c3ccc(Cl)cc3Cl)nc3ncccc32)c1 | inconclusive: 165% |  | 
12 | C=CCn1cccc(C(=O)Nc2ccc(F)cc2)c1=O | inconclusive: 13% |  | 
13 | Cn1cccc1C(=O)NCCc1ccccc1 |  | inconclusive: 6.51 µM [activator, partial curve, poor fit] | 
14 | CCOC(=O)C1=C(COC(=O)CSc2ccc(C)cc2C)NC(=O)NC1C (stereo unspecified) | inconclusive: 28.1% |  | 
15 | COc1ccc(C(=O)NNC(=O)C2CCN(S(=O)(=O)c3ccc(C)cc3)CC2)cc1 | inconclusive: 32.9% |  | 
16 | C(=N\N1CCN(Cc2ccccc2)CC1)/c1ccccc1 | inconclusive: 22.5% |  | 
17 | COc1n[nH]c(C(=O)Nc2nc3ccccc3s2)c1[N+](=O)[O-] | inconclusive: -34.8% |  | 
18 | CC(C)CN(C(=O)CN(C)S(=O)(=O)c1ccc(Cl)cc1)C1CCS(=O)(=O)C1 (stereo unspecified) |  | inconclusive: 29.1 µM [activator, single point] | 
19 | COc1ccc(C(=O)c2c3ccc(OC)cc3[n+]([O-])n2Cc2ccc(C(N)=O)cc2)cc1 | inconclusive: -16.7% |  | 
20 | CCN1CCC(NC(=O)Nc2ccccc2C(=O)OC)CC1 | inconclusive: -22.8% [at 9.22 µM] |  | 
21 | COc1ccc(-n2cccc2/C=C2\C(=N)N3N=C(C(C)C)SC3=NC2=O)cc1 | inconclusive: -20.3% |  | 

Ordered by molar mass (high to low): some entries from above
Row | Structure (SMILES) | lipid storage change, negative = inhibition | Potency | outcome
19 | COc1ccc(C(=O)c2c3ccc(OC)cc3[n+]([O-])n2Cc2ccc(C(N)=O)cc2)cc1 | inconclusive: -16.7% |  | 
21 | COc1ccc(-n2cccc2/C=C2\C(=N)N3N=C(C(C)C)SC3=NC2=O)cc1 | inconclusive: -20.3% |  | 
8 | CCOC(=O)c1cnn(-c2nc(OCC)cc(OCC)n2)c1C | inconclusive: 30.4% |  | 
